Data reported in US20120214821A1, “Lipidomic Biomarkers of Diabetes” (THE BROAD INSTITUTE, INC., priority 2011, published 2012).
Read-outs that look alike come from different tables or passages of the source.

Columns and labels:
[1] = 20 non-diabetic individuals, fasting, single oral dose glipizide 5 mg, baseline 95 mg/dL, p<0.0001 versus baseline
Protocol: (§1) Pharmacologic studies were performed as follows. […] After a washout period of 6 days, subjects received metformin 500 mg twice daily for two days in order to reduce hepatic gluconeogenesis, and then underwent a 75 g OGTT in the presence of metformin. […] From the first 164 subjects completing the protocol, 20 participants were selected who represented both high and low ends of the HOMA-IR range.
(§2) OGTT causes an acute rise in plasma glucose, which then triggers a rise in insulin.
(§3) After a washout period of 6 days, these 20 individuals were then administered four doses of metformin (500 mg) over two days. Although chronic metformin use decreases insulin resistance, its acute effect is to decrease hepatic glucose output, and as a result, lower plasma insulin (10).

plasma TAGs = settings: 20 non-diabetic individuals, glipizide 5 mg, 60 and 120 minutes versus baseline (FIGS. 6A, 6B)
Protocol: as §1, §2, §3

**Q.** Which results are given for `Cc1cnc(C(=O)NCCc2ccc(S(=O)(=O)NC(=O)NC3CCCCC3)cc2)cn1` [glipizide]?
**A.** mean plasma glucose ([1]; 60 minutes): 79 mg/dL; mean plasma glucose ([1]; 120 minutes): 65 mg/dL; TAG response (change of plasma TAGs by carbon number and double bond content) (plasma TAGs): recapitulated the TAG response to OGTT
